According to PubChem BioAssay AID2685 (National Center for Advancing Translational Sciences (NCATS), 2010):
The whole screen tested about 320,000 compounds, of which about 2,100 (0.66%) were called active. Inconclusive means that the source gave no clear call. Such entries were picked first, then a sample of the others. Calls come from the whole dose curve; as a rule, active = well fitted inhibition curve with a large enough effect in the signal ratio, with a control signal flat (not every such curve was filed as active); inconclusive = small, poorly fitted or top-dose-only effect, or effect the other way, or a change in a side signal; inactive = flat fitted curve, though single readings scatter; the % refers to the signal ratio. Potencies of inconclusive entries are doubtful fits and often do not repeat.

Experiment: qHTS Assay for Lipid Storage Modulators in Drosophila S3 Cells
Conditions: BODIPY lipid droplet fluorescence, 18-24 h, cells fed with added oleic acid; lipid storage change, negative = inhibition: at 46.1 µM (top of the series) unless noted
Outline: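 Drosophila S3 cells loaded with oleic acid (400 uM, as added) and compounds at several concentrations; lipid droplets imaged by 488-nm laser-scanning cytometry, 500–530 nm intensity and object ratio to cell channel. Percent activity normalized to 20 uM Triacsin C.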
% is set by controls: 0 for no effect and ±100 for the full control effect; potency is the fitted concentration of half-maximal effect.

Lipid storage change, negative = inhibition, inconclusive:
CC1CCN(C(=O)CCc2nnc(-c3ccccc3)o2)CC1 -12.6%
CC(/C=C/c1ccco1)=N/NC(=O)CNc1ccccc1C -3.7%
CC(=O)c1cccc(NS(=O)(=O)c2c(C(=O)N3CCOCC3)c(C)n(C)c2C)c1 6.81%
CCCCCCOc1ccc(NC(=O)CC2C(=O)N(CC)C(=S)N2Cc2ccco2)cc1 (centres undefined) -71.1%
COc1ccc(N2CCN(C(c3cccc(OC)c3OC)c3nnnn3C3CCCC3)CC2)cc1 (centres undefined) 23.1%
CCOC(=O)C1=C(CSc2nc(-c3ccncc3)ccc2C#N)OC(N)=C(C#N)C1c1cccnc1 (centres undefined) 10%
O=Cc1ccc(OCc2nnc(-c3ccccc3Br)o2)cc1 -17.2%
COC(=O)c1ccc(N2C(=O)C3CC=CC(C)C3C2=O)cc1 (centres undefined) -23.7%
O=C(C(Cc1ccccc1)N1C(=O)C2C3C=CC(C3)C2C1=O)N1CCCCC1 (centres undefined) -13.9%
Cc1ccccc1NC(=O)c1c2c(nc3ccccc13)CCC2 99.5%
NS(=O)(=O)c1ccc(NC(=O)C2Cc3ccccc3C(=O)O2)cc1 (centres undefined) 0.3%
O=C(CNc1cccc2ccccc12)N/N=C/C=C/c1ccco1 13.1%
Cc1ccc(Sc2ccc(CN3CCCCC3)cc2[N+](=O)[O-])cc1 -22.2%
O=C(NCCc1ccccc1)C(=O)NCCC1CCCCN1S(=O)(=O)c1ccccc1 (centres undefined) 6.22%
COc1ccc(NC(=O)CN(C)C(=O)c2ccc(N3CCCC3)c([N+](=O)[O-])c2)cc1 34.7%
CCCCNC(=O)C1CCN(S(=O)(=O)c2ccc3c(c2)CC(C)N3C(=O)C2CC2)CC1 (centres undefined) 17.1%
CC(=O)Nc1ccc(S(=O)(=O)NCc2ccc(C)n2C)cc1 -10.3%
C=CCNC(=O)COC(=O)CCC(=O)c1cccs1 -11.2%
COc1ccc([N+](=O)[O-])cc1N1C(=O)c2cccc3cccc(c23)C1=O -5.48%
CCOC(=O)NC(=S)Nc1cccc(NC(=S)NC(=O)OCC)c1 8.71%
CCOc1ccc(C(CC(=O)O)NS(=O)(=O)c2ccc(C)cc2)cc1OC (centres undefined) 0.105%
O=C(c1ccc(Cl)cc1)C1CCN(C(=O)c2ccc(F)cc2)CC1 -40.4%
O=C(Nc1ccc(N2CCN(C(=O)c3ccccc3)CC2)cc1)c1cc2ccccc2o1 -32.3%
CN1CCN(CC#CC2(O)CCCCC2)CC1 -177%
Cc1ccc(C(=O)NCc2cccc(C(F)(F)F)c2)cc1S(=O)(=O)N1CCCCC1 20.4%
O=C(NNC(=S)NC1CC2CCC1C2)c1ccc(Cl)cc1 (centres undefined) 9.18%
O=C(CSc1cn[nH]n1)Nc1cccc(C(=O)O)c1 452%
C=C(C)C1CC=C(C)/C(=N/NC(=O)COc2ccc(Cl)cc2)C1 (centres undefined) 18.9%
N#CC1(Nc2ccccc2)C(=O)Nc2ccccc21 (centres undefined) -20.4%

A stretch from the list above, as a working copy:
Lipid storage change, negative = inhibition, inconclusive:
Cc1ccc(Sc2ccc(CN3CCCCC3)cc2[N+](=O)[O-])cc1 -22.2%
O=C(NCCc1ccccc1)C(=O)NCCC1CCCCN1S(=O)(=O)c1ccccc1 (centres undefined) 6.22%
COc1ccc(NC(=O)CN(C)C(=O)c2ccc(N3CCCC3)c([N+](=O)[O-])c2)cc1 34.7%
CCCCNC(=O)C1CCN(S(=O)(=O)c2ccc3c(c2)CC(C)N3C(=O)C2CC2)CC1 (centres undefined) 17.1%

Next part:

Lipid storage change, negative = inhibition, inactive:
Cc1ccc(NC2OC(CO)C(O)C2O)cc1[N+](=O)[O-] (centres undefined)
O=C1CN(S(=O)(=O)c2ccccc2)CCN1S(=O)(=O)c1ccccc1

Potency, active:
CCCCc1c(O)nc(SCC(=O)Nc2cccc3ccccc23)n(-c2ccccc2OC)c1=O 20.6 µM
CC1(C)CC(=O)N(c2ccccc2)C1(C)O (centres undefined) 0.164 µM

Potency, inconclusive:
COc1ccc(-c2ccc(-c3noc(-c4ccc(OC)c(OC)c4)n3)c(OC)n2)cc1 0.82 µM [falling, full curve, poor fit]
COc1ccc(CC(=O)OC(C)CN2CCOCC2)cc1 (centres undefined) 4.61 µM [falling, full curve]
COc1cccc(NC(=O)CCS(=O)(=O)c2cc3c(cc2Cl)NC(=O)CO3)c1 29.1 µM [falling, single point]
Cc1ccc(C(=O)NCc2ccccn2)cc1Cl 29.1 µM [activator, single point]
CCCCn1c(N)c(N(CC(C)C)C(=O)c2ccc([N+](=O)[O-])o2)c(=O)[nH]c1=O 0.082 µM [falling, full curve]
COc1cccc(C(=O)C2CN(c3ccccc3)CC2c2ccc(Cl)cc2)c1 (centres undefined) 6.51 µM [activator, partial curve]
COc1cccc(NC(=O)CCC2CCN(C(=O)c3ccc(C(C)=O)s3)CC2)c1 0.116 µM [activator, full curve, poor fit]
Nc1nc2ccccc2n1/N=C/c1ccc([N+](=O)[O-])s1 9.2 µM [falling, partial curve]
N#C/C(=C\Nc1ccccc1SC(F)(F)F)c1nc(-c2ccc(F)cc2)cs1 5.8 µM [falling, single point]
CCC(C)NC(=O)CN(c1cc(C)ccc1OC)S(C)(=O)=O (centres undefined) 0.0052 µM [falling, full curve, poor fit]
COc1ccc(C/C(N)=N/OC(=O)COc2ccccc2C)cc1 23.1 µM [activator, partial curve]
Cc1cccc(-n2cnc3c(c2=O)c2nc4ccccc4nc2n3Cc2ccco2)c1 2.06 µM [activator, full curve]
COc1ccc(OCCCC(=O)OC(C)C(=O)Nc2ccc(C)cc2)cc1 (centres undefined) 16.4 µM [falling, partial curve, poor fit]
COc1ccc(OC)c(NC(=O)c2cccc(S(=O)(=O)N(Cc3ccccc3)c3ccccc3OC)c2)c1 0.517 µM [activator, full curve, poor fit]
COC(=O)c1c(=O)n(O)c2ccc(OC)cc2[n+]1[O-] 14.6 µM [falling, partial curve, poor fit]
CCC1(CC)NC(=O)N(CC(=O)NC(=O)NCc2ccccc2)C1=O 29.1 µM [falling, single point]
